Assay results taken from PubChem BioAssay AID488840 (Broad Institute, 2010).
Among all 1,400 compounds or so, about 45 (3%) were called active.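 The calls were made as follows: active = half-maximal dose of signal decrease from fit no higher than ten times the top valid tested dose; inconclusive = fit invalid, or curve flat with 30 to 70% inhibition; inactive = the rest.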 The list shows a part of the results. Entries with a potency or affinity are not part of this list.

Chains of the proteins cited; added tags and fusions are not shown. Lines headed by an entry give the natural chain unless they say otherwise; changes in a name come on top.
UniProt O75164: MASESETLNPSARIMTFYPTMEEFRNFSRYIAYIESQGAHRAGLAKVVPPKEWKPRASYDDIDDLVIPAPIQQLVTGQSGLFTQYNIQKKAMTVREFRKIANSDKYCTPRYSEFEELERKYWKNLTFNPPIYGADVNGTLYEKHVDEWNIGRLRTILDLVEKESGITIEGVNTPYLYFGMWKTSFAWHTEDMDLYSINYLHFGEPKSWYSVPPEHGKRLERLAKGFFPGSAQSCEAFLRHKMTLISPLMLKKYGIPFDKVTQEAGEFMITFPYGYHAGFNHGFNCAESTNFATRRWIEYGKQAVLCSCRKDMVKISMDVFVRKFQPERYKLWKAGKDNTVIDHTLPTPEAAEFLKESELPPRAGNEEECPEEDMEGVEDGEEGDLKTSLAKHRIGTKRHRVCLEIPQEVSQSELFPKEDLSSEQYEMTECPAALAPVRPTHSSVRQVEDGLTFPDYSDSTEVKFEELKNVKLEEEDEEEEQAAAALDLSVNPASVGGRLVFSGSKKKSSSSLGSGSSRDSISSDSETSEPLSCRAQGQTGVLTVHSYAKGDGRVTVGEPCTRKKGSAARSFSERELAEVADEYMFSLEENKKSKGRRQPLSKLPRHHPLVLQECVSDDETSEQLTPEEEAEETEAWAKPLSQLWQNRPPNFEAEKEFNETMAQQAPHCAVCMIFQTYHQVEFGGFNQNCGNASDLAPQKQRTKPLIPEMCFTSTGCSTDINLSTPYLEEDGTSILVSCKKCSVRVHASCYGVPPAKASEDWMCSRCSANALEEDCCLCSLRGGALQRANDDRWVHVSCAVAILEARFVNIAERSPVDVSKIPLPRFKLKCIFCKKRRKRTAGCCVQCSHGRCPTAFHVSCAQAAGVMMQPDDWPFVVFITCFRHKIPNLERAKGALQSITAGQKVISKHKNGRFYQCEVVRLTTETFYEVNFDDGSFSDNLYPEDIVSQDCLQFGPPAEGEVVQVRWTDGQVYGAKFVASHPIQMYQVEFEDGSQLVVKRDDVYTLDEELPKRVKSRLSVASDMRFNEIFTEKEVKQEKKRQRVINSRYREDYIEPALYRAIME

Target: Lysine-specific demethylase 4A (Homo sapiens) (UniProt O75164)
Experiment: JMJD2A histone demethylase inhibitors, dose response, selectivity assay for GASC-1 inhibitor project, biochemical, DELFIA europium, cherry-picked samples (AID 488840);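 also: europium signal reports the dimethyl H3K9 product detected by antibody so inhibitors lower it; 0% = median of neutral control wells and -100% = median of positive control wells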
Details: GST-JMJD2A(1-420) H3K9me3 demethylation; at 6 µM (top of the series) unless noted

Activity change, negative = inhibition, inactive:
O=c1cc(NC2CCCCCC2)[nH]c(=O)[nH]1 -9.15%
O=C(CN1C(=O)NC2(CCOc3ccccc32)C1=O)c1ccc[nH]1 (stereo unspecified) -1.74%
CC(C)CN(C(=O)c1ccc(N2CCCC2=O)cc1)c1c(N)n(Cc2ccccc2)c(=O)[nH]c1=O 8.41%
COc1cccc(S(=O)(=O)Nc2cccc(C(=O)N3CCCCCC3)c2)c1 -2.69%
O=C(NNC(=O)c1ccc(SCC2CCCO2)c([N+](=O)[O-])c1)c1ccc(Cl)c([N+](=O)[O-])c1 (stereo unspecified) -5.44%
COc1ccc(NC(=O)NC(C)c2ccc3c(c2)OCO3)c(OC)c1 (stereo unspecified) -3.13%
CCCn1c(SCC(=O)Nc2c(C)cccc2CC)nnc1C(C)C 2.86%
Cc1cc(Cl)ccc1OCC(=O)NCCCN1CCOCC1 0.331%
c1ccc(-c2csc(-n3cccn3)n2)cc1 -5.8%
COc1ccc(C(=O)Nc2ncc3c(n2)CC(c2ccco2)CC3=O)cc1 (stereo unspecified) 2.4%
COc1ccc(OCC(=O)N/N=C/C(C)=C/c2ccco2)c(Br)c1 -1.99%
O=C(O)c1ccc2c(c1)nnn2C1CCCCC1 3.78%
COC(=O)C1CC(O)CN1C(=O)NC1CCCCC1 (stereo unspecified) -1.32%
N#CCCCCN1c2cccc3cccc(c23)S1(=O)=O 0.123%
COc1ccc(NC(=O)N(C)C[C@H]2Oc3c(NS(=O)(=O)c4cccs4)cccc3C(=O)N([C@H](C)CO)C[C@@H]2C)cc1 0.615%
CCCn1c2ccccc2c2nnc(SCC(=O)Nc3c(C)n(C)n(-c4ccccc4)c3=O)nc21 0.443%
COc1ccccc1Cc1nnc(NC(=O)C2CCN(C(=O)c3ccco3)CC2)s1 -1.48%
CC1(C)CC2(CC(C)(C)N1)OC(=O)N1CCc3ccccc3C12C (stereo unspecified) -5.51%
CC(C)(C)c1ccc(S(=O)(=O)NCc2ccc(C(=O)N3CCCC3)cc2)cc1 -1.01%
CSc1nnnn1CCn1nnnc1SC 2.54%
COc1cc(/C=N/N2CCN(c3ccccc3OC)CC2)ccc1O -6.9%
COc1ccc(-c2n[nH]c(=S)n2C2CCCCC2)cc1 -54.1%
Nc1nc(C2CC(=O)OC23CCCCC3)cs1 (stereo unspecified) -2.84%
Cc1cc(Cl)ccc1OCC(=O)N1CCCCC1 2.36%
CCOc1ccccc1Nc1nc2ccccc2n2cnnc12 -6.63%
COc1ccc(/C=C2\Sc3ccc(C(=O)N4CCCC4)cc3N(C)C2=O)cc1OC -0.904%
O=C(COC(=O)CCC(=O)c1cccs1)Nc1ccc(S(=O)(=O)N2CCOCC2)cc1 -9.01%
COc1ccc2c(C(=O)CN3CCN(c4ccccc4)CC3)c[nH]c2c1 1.19%
Cc1ccc(Nc2nc3nonc3nc2N(C)C)cc1 13.4%
CC[C@]12c3[nH]c4ccccc4c3CCN1C(=O)C(CC(=O)NCCCOC)C[C@@H]2C(=O)N1CCN(C(=O)c2ccco2)CC1 (stereo partly specified) -4.78%
CC(=O)c1c(C(C)=O)c(C)n(NC(=O)c2ccncc2)c1C -1.43%
Cc1ccccc1-n1nc(C)c2cc(C(=O)N3CCN(S(=O)(=O)c4ccc(F)cc4)CC3)sc21 -3.6%
O=[N+]([O-])c1ccc(/C=[N+](\[O-])[C@@H]2CCCC[C@@H]2/[N+]([O-])=C/c2ccc([N+](=O)[O-])o2)o1 -0.265%
N=c1nc(-c2ccccc2)ccn1O 2.55%
CCCCCC1CC(=O)N(Cc2ccccc2)C(=O)N1 (stereo unspecified) 2.13%
c1ccc(-c2ccccc2OCCN2CCCC2)cc1 0.528%
COc1ccc(CN(Cc2nc3ccccc3c(=O)[nH]2)C(=O)NC2CCCCC2)cc1 1.62%
CCOc1ccc(CN2CCN(Cc3nc(C(C)C)cs3)CC2CCO)cc1 (stereo unspecified) 9.55%
COc1ccc(NC(=O)N(C)C[C@H]2Oc3c(NC(=O)C4CCCCC4)cccc3C(=O)N([C@H](C)CO)C[C@@H]2C)cc1 -0.592%
Cc1ccc(NC(=O)CSc2ncccn2)c([N+](=O)[O-])c1 -0.294%
O=C(c1ccncc1)N1N=C(C2CCCCC2)CC1(O)C(F)(F)F (stereo unspecified) -3.98%
CCCN1C(=O)c2ccc(C(=O)Nc3cc(C)ccc3O)cc2C1=O -4.14%
COC(=O)c1sc(S(=O)(=O)NCc2ccccc2)c(C(=O)OC)c1C -3.12%
COc1ccc(C2/C(=C(/O)c3ccccc3)C(=O)C(=O)N2CCN2CCOCC2)c(OC)c1 (stereo unspecified) -0.793%
C#CCOCCOCCOCCNc1nc(N2CCN(C(=O)CCCCCCCCCCNC(=O)[C@H](CCCCN)n3cc(CCO)nn3)CC2)nc(N2CCN(C(=O)CCCCCCCCCCNC(=O)[C@H](CCCCN)n3cc(C[C@@H](C)CC)nn3)CC2)n1 21.3%
O=C(NC1CCCc2ccccc21)c1ccc(Br)cc1 (stereo unspecified) 2.31%
Cc1ccc(-c2csc(NC(=O)CSc3nc(C)cc(=O)[nH]3)n2)cc1 1.45%
O=C(CC1NC(=O)NC1=O)Nc1ccccc1 (stereo unspecified) 1.09%
O=Cc1ccc(C(=O)OCC(=O)Nc2ccc(F)cc2F)cc1 -4.33%
Cc1cc(C)n(-c2nnc(C)n2/N=C/c2ccco2)n1 -8.26%
CC(C)(C)NNC(=S)Nc1cccc(C(F)(F)F)c1 -1.89%
CC[C@H]1CCCCc2ccccc2[C@@H](C(=O)C[C@@H](O)CC(C)=O)OC1=O 0.689%
COCCCNC(=S)NNC(=O)c1ccccn1 6.83%
COc1ccccc1/C=C/C(=O)Nc1ccc(N2CCOCC2)cc1 -5.29%
C[C@H]1CN([C@@H](C)CO)C(=O)c2cc(NS(=O)(=O)c3ccc(Cl)cc3)ccc2O[C@@H]1CN(C)CC1CCCCC1 1.27%
Cc1[nH]n2c(=O)c3c(nc2c1-c1ccccc1)CCCC3 5.6%

Looked up by compound from the entries so far, 5 records:
Activity change, negative = inhibition, inactive:
CC1(C)CC2(CC(C)(C)N1)OC(=O)N1CCc3ccccc3C12C (stereo unspecified) -5.51%
N=c1nc(-c2ccccc2)ccn1O 2.55%
O=C(NC1CCCc2ccccc21)c1ccc(Br)cc1 (stereo unspecified) 2.31%
O=C(c1ccncc1)N1N=C(C2CCCCC2)CC1(O)C(F)(F)F (stereo unspecified) -3.98%
Cc1cc(Cl)ccc1OCC(=O)N1CCCCC1 2.36%
